# Data as given in PubChem BioAssay AID1224828 (NIAID, 2016)
# Purpose: 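Find genes required for NF-kappaB p65 moving into the nucleus after LPS in mouse macrophages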 (primary screen)
# Cell system: mouse RAW264.7 G9 macrophage reporter cells (GFP-p65, Tnf promoter-mCherry)
# Reagents: siRNA pool against mouse genes, 100 nM
# Duration: 2 days siRNA transfection, then 40 min LPS before fixation
# Challenge: LPS (Salmonella minnesota R595) at 10 ng/ml
# Measured: 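Imaged p65 nuclear translocation ratio, normalised to the plate median, converted to robust z-scores and averaged across two replicates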
# Scale: p65 translocation robust z-score: higher = more nuclear NF-kappaB p65 after LPS than the plate median; nuclear/cytoplasmic p65 ratio: higher = more nuclear NF-kappaB p65
# Hit rule: 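Called active when z exceeds 3.3 or falls under -1.56 (median of Tlr4 controls), giving activity score of at least 50; no calls for control wells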
# Calls: active = hit (p65 shift raised or lowered); inactive = no clear change
# The whole screen tested about 17,000 reagents; shown is a random part of them. 762 of them (4.5%) count as active. 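Active calls include both raised and lowered p65 entry, mostly lowered; wells with fewer than 50 cells lack a z-score.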 Raw values vary from plate to plate and are shown uncorrected. Unmarked entries are inactive. No sequences are given here.
Target gene,p65 translocation robust z-score,"nuclear/cytoplasmic p65 ratio, rep 1","nuclear/cytoplasmic p65 ratio, rep 2",low cell count flag
Ndufb3,-0.34,1.85,1.44,enough cells to score
Mfsd6l,-0.53,1.53,1.72,enough cells to score
Sprr2i,-0.47,1.38,1.16,enough cells to score
Ap1m2,-1.58 (active),1.28,1.53,enough cells to score
Brf1,0.84,1.73,1.75,enough cells to score
Btaf1,-0.21,1.48,1.3,enough cells to score
Cxcl15,-0.48,1.44,1.78,enough cells to score
Tas2r135,-0.83,1.31,1.55,enough cells to score
Hras,-2.1 (active),1.3,1.27,enough cells to score
Nckap1,0.13,1.36,1.36,enough cells to score
Or2w4,0.39,1.66,1.45,enough cells to score
Gemin6,-1.22,1.37,1.34,enough cells to score
Rps6ka5,0.94,1.84,1.49,enough cells to score
Or6b9,,1.48,1.19,fewer than 50 cells per well; well left out of scoring
Fbl,,1.49,1.85,fewer than 50 cells per well; well left out of scoring
Dennd6b,,1.55,1.22,fewer than 50 cells per well; well left out of scoring

Only “low cell count flag” (2 entries from above):
Sprr2i: enough cells to score
Ap1m2: enough cells to score (active)

Further entries:
Target gene,p65 translocation robust z-score,"nuclear/cytoplasmic p65 ratio, rep 1","nuclear/cytoplasmic p65 ratio, rep 2",low cell count flag
Rilpl2,0.22,1.55,1.74,enough cells to score
Coasy,0.06,1.76,1.35,enough cells to score
Ints2,3.46 (active),1.71,1.65,enough cells to score
Pias1,-0.44,1.45,1.34,enough cells to score
Trim14,0.62,1.49,1.69,enough cells to score
Akp3,-0.77,1.51,1.49,enough cells to score
V1rg10,1.61,1.6,1.4,enough cells to score
Hoxb6,-0.71,1.29,1.33,enough cells to score
